# Test results from the supplement of paper PMC10849652.
# Sequences of proteins named here, by UniProt entry; tags and fusion partners are left off. A change or cut given only in a name is not applied to a line headed by its entry.
# UniProt Q9UNI6, whole entry, looked up: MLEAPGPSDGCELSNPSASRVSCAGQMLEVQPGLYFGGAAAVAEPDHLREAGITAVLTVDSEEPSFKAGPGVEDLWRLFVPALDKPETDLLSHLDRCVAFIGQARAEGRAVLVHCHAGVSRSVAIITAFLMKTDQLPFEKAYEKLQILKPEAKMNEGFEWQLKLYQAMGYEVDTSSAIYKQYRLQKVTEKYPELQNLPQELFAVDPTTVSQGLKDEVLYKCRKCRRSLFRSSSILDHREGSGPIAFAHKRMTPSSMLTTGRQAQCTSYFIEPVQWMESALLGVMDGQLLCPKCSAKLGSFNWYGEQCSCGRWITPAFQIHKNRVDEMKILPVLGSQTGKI
# UniProt Q9NX74: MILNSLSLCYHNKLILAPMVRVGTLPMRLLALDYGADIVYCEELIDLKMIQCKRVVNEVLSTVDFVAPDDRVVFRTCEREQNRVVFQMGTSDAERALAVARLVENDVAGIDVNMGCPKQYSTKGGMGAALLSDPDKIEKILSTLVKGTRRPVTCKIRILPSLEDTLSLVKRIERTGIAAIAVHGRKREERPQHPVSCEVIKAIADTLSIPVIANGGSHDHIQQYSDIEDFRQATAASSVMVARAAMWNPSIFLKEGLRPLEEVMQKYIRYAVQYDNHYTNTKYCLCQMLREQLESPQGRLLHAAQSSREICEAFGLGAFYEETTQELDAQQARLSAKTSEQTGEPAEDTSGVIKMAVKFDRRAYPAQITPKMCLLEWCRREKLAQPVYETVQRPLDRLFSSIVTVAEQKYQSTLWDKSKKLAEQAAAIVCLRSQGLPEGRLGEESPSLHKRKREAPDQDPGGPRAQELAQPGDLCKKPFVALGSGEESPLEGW
# UniProt P55039: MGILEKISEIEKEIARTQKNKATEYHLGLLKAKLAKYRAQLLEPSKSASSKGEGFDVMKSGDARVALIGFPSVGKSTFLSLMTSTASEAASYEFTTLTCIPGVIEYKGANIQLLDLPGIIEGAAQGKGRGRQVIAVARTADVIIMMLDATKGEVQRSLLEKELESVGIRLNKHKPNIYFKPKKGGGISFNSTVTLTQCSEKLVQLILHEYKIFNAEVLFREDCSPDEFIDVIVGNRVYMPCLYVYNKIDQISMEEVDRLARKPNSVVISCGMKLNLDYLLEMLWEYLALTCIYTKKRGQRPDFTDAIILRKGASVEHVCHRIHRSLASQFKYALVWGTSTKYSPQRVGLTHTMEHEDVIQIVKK
# UniProt Q9BZG8: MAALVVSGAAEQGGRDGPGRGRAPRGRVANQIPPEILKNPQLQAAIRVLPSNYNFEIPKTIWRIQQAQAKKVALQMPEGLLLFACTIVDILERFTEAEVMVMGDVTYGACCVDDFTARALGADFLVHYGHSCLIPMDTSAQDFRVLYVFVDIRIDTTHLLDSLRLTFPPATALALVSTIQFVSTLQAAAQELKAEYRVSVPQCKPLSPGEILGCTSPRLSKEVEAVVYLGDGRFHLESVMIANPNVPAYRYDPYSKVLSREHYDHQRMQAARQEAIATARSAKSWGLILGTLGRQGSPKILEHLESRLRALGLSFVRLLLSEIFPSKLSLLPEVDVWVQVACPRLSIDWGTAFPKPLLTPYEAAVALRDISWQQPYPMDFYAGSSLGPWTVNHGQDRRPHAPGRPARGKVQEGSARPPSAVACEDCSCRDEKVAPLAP
# UniProt O60869: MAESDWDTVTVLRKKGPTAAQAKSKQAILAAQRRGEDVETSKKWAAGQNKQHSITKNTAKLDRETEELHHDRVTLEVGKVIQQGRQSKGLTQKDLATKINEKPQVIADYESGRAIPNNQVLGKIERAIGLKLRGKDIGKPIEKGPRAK
# UniProt O60739, whole entry, looked up: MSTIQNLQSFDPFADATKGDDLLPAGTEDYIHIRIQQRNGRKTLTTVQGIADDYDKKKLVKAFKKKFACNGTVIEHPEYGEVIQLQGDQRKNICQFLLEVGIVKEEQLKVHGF
# UniProt Q9GZT9: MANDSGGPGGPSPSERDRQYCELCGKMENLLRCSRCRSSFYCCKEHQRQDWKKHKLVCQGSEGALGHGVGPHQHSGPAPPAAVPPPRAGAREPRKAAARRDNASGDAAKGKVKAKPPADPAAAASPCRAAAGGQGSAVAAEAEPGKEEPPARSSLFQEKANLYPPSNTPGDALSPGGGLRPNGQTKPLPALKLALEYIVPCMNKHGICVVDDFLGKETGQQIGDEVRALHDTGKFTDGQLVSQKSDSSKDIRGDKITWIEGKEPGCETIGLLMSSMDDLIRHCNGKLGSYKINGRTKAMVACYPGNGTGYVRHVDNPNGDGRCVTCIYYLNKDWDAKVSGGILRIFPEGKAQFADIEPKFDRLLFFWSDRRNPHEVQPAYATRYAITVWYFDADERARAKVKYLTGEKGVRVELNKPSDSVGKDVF
# UniProt P41567, whole entry, looked up: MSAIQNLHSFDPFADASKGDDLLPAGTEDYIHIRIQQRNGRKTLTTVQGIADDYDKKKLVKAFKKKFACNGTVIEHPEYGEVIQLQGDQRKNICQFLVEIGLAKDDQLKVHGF
# UniProt Q6V1X1: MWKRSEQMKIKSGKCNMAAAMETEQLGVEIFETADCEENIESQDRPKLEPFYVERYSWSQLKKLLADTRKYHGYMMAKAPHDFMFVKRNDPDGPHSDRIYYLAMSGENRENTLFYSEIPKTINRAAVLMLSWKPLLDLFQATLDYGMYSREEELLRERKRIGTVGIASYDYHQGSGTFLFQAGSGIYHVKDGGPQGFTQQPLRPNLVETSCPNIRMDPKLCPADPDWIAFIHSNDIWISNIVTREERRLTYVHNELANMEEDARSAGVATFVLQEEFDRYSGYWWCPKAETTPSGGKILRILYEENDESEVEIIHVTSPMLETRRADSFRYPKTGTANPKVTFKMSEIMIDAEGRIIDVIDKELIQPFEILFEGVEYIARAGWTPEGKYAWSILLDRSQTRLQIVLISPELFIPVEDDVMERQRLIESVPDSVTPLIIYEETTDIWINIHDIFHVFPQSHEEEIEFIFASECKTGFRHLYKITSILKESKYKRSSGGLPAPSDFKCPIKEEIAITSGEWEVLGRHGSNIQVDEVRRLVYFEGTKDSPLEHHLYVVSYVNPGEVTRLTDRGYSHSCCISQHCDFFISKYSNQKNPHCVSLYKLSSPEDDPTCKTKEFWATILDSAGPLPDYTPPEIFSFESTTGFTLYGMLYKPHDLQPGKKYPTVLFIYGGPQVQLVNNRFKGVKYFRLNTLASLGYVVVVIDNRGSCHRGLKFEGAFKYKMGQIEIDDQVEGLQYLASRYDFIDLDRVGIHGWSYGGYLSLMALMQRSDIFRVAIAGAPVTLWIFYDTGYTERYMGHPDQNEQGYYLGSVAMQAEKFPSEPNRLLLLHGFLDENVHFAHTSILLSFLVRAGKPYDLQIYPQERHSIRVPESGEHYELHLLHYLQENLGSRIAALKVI
# UniProt Q96F86: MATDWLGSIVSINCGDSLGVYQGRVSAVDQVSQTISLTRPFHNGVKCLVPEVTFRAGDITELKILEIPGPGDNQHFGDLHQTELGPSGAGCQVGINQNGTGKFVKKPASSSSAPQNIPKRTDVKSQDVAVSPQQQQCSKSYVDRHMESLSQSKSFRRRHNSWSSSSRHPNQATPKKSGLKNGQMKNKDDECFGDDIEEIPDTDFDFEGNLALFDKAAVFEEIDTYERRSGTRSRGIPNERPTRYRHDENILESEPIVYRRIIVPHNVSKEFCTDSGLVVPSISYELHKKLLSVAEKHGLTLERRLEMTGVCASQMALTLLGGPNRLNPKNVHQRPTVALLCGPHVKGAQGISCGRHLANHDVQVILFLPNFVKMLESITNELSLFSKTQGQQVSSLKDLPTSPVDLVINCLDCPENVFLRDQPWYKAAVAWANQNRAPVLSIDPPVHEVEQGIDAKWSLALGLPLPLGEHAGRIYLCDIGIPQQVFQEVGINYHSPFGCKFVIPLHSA
# UniProt P47813, whole entry, looked up: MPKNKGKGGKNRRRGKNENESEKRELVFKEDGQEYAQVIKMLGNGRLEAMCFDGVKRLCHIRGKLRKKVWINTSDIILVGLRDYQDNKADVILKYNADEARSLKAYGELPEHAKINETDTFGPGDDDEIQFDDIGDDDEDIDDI
# UniProt Q96FJ2, whole entry, looked up: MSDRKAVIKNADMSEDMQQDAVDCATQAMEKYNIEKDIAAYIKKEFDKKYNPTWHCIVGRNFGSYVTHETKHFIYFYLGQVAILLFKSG
# UniProt Q9NP97, whole entry, looked up: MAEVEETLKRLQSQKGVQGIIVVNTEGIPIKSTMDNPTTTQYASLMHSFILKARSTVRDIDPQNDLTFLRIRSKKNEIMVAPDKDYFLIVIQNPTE
# UniProt P23919: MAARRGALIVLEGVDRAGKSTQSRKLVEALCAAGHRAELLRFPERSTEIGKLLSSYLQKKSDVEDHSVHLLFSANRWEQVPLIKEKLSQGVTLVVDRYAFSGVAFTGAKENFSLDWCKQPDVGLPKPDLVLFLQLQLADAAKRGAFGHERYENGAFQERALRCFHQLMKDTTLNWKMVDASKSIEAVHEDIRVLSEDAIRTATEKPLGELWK
# The other results are listed elsewhere or left out.
# What was measured:
# Test in all cases: log2 fold change, soluble protein after heating vs DMSO (PISA); higher = thermal stabilisation; K562 lysate, 10 uM; active = over 0.2 and 3.5 SD of the protein, either way, in both replicates (recomputed)
# vemurafenib = compound: CCCS(=O)(=O)Nc1ccc(F)c(C(=O)c2c[nH]c3ncc(-c4ccc(Cl)cc4)cc23)c1F [vemurafenib]
# Method in brief: (§1)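 Thermal stability, expressed as log-two fold change relative to solvent controls, is given from duplicates. Crude K562 extract in PBS pH 7.4 with 1 mM MgCl2, at 1 mg/mL protein, was treated with 10 μM compound for 30 min and heated in aliquots for 3 min across 48°C-58°C. After pooling, adjustment to 0.5% NP-40 at 4°C and centrifugation at 21,000xg for 90 min, supernatant protein was measured by TMTpro 16plex LC-MS/MS with channel sums equalised.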
# [1] = compound: CCCS(=O)(=O)Nc1ccc(F)c(C(=O)c2c[nH]c3ncc(Cl)cc23)c1F
# Method in brief: as §1
# barasertib = compound: CCN(CCCOc1ccc2c(Nc3cc(CC(=O)Nc4cccc(F)c4)[nH]n3)ncnc2c1)CCOP(=O)(O)O [barasertib]
# Method in brief: as §1
# [2] = compound: CC[C@@H]1C(=O)N(C)c2cnc(Nc3ccc(C(=O)NC4CCN(C)CC4)cc3OC)nc2N1C1CCCC1
# Method in brief: as §1
# volasertib = compound: CC[C@@H]1C(=O)N(C)c2cnc(Nc3ccc(C(=O)N[C@H]4CC[C@H](N5CCN(CC6CC6)CC5)CC4)cc3OC)nc2N1C(C)C [volasertib]
# Method in brief: as §1
# [3] = compound: CCn1c(C(=O)N(C2CC2)C2CC2)cc2c3c(ncn3C)c(Nc3cc(C)n(C)n3)nc21
# Method in brief: as §1
# [4] = compound: CCn1cc(-c2ccnc3[nH]c(-c4cccc(CN(C)C)c4)cc23)c(-c2ccc(NC(=O)N(C)C)cc2)n1
# Method in brief: as §1
# [5] = compound: CN1CCC(CNc2ccc3ncc(-c4cccc(OC(F)(F)F)c4)n3n2)CC1
# Method in brief: as §1
# saracatinib = compound: CN1CCN(CCOc2cc(OC3CCOCC3)c3c(Nc4c(Cl)ccc5c4OCO5)ncnc3c2)CC1 [saracatinib]
# Method in brief: as §1
# sotrastaurin = compound: CN1CCN(c2nc(C3=C(c4c[nH]c5ccccc45)C(=O)NC3=O)c3ccccc3n2)CC1 [sotrastaurin]
# Method in brief: as §1
# alvocidib = compound: CN1CC[C@H](c2c(O)cc(O)c3c(=O)cc(-c4ccccc4Cl)oc23)[C@H](O)C1 [alvocidib]
# Method in brief: as §1
# Tubastatin A = compound: CN1CCc2c(c3ccccc3n2Cc2ccc(C(=O)NO)cc2)C1 [Tubastatin A]
# Method in brief: as §1
# [6] = compound: CNC(=O)C1=CC=CC=C1NC2=NC(=NC=C2Cl)NC3=C(C=C(C=C3)N4CCOCC4)OC
# Method in brief: as §1
# defactinib = compound: CNC(=O)c1ccc(Nc2ncc(C(F)(F)F)c(NCc3nccnc3N(C)S(C)(=O)=O)n2)cc1 [defactinib]
# Method in brief: as §1
# [7] = compound: CNc1nc(-c2ccc3c(N)n[nH]c3c2)cc(N2C[C@@H](C(=O)NC3CCCCC3)CC[C@H]2C)n1
# Method in brief: as §1
# encorafenib = compound: COC(=O)N[C@@H](C)CNc1nccc(-c2cn(C(C)C)nc2-c2cc(Cl)cc(NS(C)(=O)=O)c2F)n1 [encorafenib]
# Method in brief: as §1
# [8] = compound: COC(=O)[C@H](CCSC)NC(=O)C1=C(C=C(C=C1)NC[C@H](CS)N)C2=CC=CC=C2
# Method in brief: as §1
# alisertib = compound: COc1cc(Nc2ncc3c(n2)-c2ccc(Cl)cc2C(c2c(F)cccc2OC)=NC3)ccc1C(=O)O [alisertib]
# Method in brief: as §1
# [9] = compound: COc1cc2nc(-c3cc(F)ccc3O)nc(N[C@@H]3CNC[C@H]3C(C)(C)O)c2cc1OC
# Method in brief: as §1
# gefitinib = compound: COc1cc2ncnc(Nc3ccc(F)c(Cl)c3)c2cc1OCCCN1CCOCC1 [gefitinib]
# Method in brief: as §1
Target,log2 fold change (vemurafenib),log2 fold change [1],log2 fold change (barasertib),log2 fold change [2],log2 fold change (volasertib),log2 fold change [3],log2 fold change [4],log2 fold change [5],log2 fold change (saracatinib),log2 fold change (sotrastaurin),log2 fold change (alvocidib),log2 fold change (Tubastatin A),log2 fold change [6],log2 fold change (defactinib),log2 fold change [7],log2 fold change (encorafenib),log2 fold change [8],log2 fold change (alisertib),log2 fold change [9],log2 fold change (gefitinib)
DUSP12 (UniProt Q9UNI6),inactive: 0.029,inactive: 0.02,inactive: -0.017,inactive: -0.033,inactive: -0.014,inactive: 0.011,inactive: -0.041,inactive: 0.038,inactive: -0.005,inactive: 0.009,inactive: -0.005,inactive: 0.019,inactive: 0.034,inactive: -0.025,inactive: 0.032,inactive: 0.014,inactive: 0.01,inactive: 0.008,inactive: -0.01,inactive: 0.031
DUS2 (UniProt Q9NX74),inactive: 0.022,inactive: 0.032,inactive: -0.026,inactive: -0.033,inactive: -0.071,inactive: -0.016,inactive: -0.095,inactive: 0.023,inactive: -0.095,inactive: -0.017,inactive: 0.056,inactive: -0.084,inactive: 0.013,inactive: 0.016,inactive: -0.045,inactive: -0.027,active: 0.352,inactive: -0.007,inactive: 0.013,inactive: 0.026
DRG2 (UniProt P55039),inactive: 0.036,inactive: 0.027,inactive: 0.027,inactive: -0.044,inactive: -0.02,inactive: -0.023,inactive: -0.057,inactive: 0.016,inactive: 0.02,inactive: 0.069,inactive: 0.026,inactive: -0.002,inactive: 0.025,inactive: -0.01,inactive: -0.005,inactive: -0.001,inactive: 0.035,inactive: 0.018,inactive: -0.004,inactive: -0.035
DPH1 (UniProt Q9BZG8),inactive: -0.036,inactive: -0.018,inactive: -0.003,inactive: 0.028,inactive: -0.031,inactive: 0.001,inactive: 0.022,inactive: 0.04,inactive: 0.007,inactive: -0.015,inactive: -0.045,inactive: 0.02,inactive: 0.009,inactive: 0,inactive: -0.003,inactive: -0.002,inactive: 0.04,inactive: 0.001,inactive: 0.001,inactive: 0.062
EDF1 (UniProt O60869),inactive: -0.01,inactive: -0.042,inactive: -0.033,inactive: 0.062,inactive: 0.036,inactive: -0.06,inactive: -0.021,inactive: 0.053,inactive: 0.012,inactive: 0.025,inactive: 0.01,inactive: 0.088,inactive: -0.021,inactive: -0.012,inactive: 0.121,inactive: -0.032,inactive: -0.033,inactive: 0.02,inactive: 0.03,inactive: -0.001
EIF1B (UniProt O60739),inactive: -0.006,inactive: 0.029,inactive: 0.033,inactive: -0.045,inactive: 0.074,inactive: 0.01,inactive: 0.01,inactive: 0.052,inactive: -0.082,inactive: -0.124,inactive: -0.275,inactive: 0.141,inactive: -0.088,inactive: 0.011,inactive: 0.219,inactive: 0.071,inactive: -0.131,inactive: -0.078,inactive: -0.039,inactive: -0.365
EGLN1 (UniProt Q9GZT9),inactive: -0.052,inactive: -0.041,inactive: -0.025,inactive: -0.078,inactive: -0.076,inactive: 0.007,inactive: 0.019,inactive: -0.001,inactive: 0.029,inactive: 0.034,inactive: -0.017,inactive: -0.088,inactive: 0.025,inactive: 0.033,inactive: -0.026,inactive: 0,inactive: 0.091,inactive: 0.009,inactive: 0.022,inactive: -0.003
EAF1 (UniProt Q96JC9),inactive: -0.157,inactive: 0.102,inactive: -0.011,inactive: -0.05,inactive: 0.022,inactive: -0.011,inactive: -0.055,inactive: 0.06,inactive: -0.018,inactive: -0.008,inactive: -0.015,inactive: 0.027,inactive: 0,inactive: 0.026,inactive: 0.032,inactive: -0.018,inactive: 0.007,inactive: 0.059,inactive: -0.01,inactive: 0.093
EIF1 (UniProt P41567),inactive: 0.013,inactive: -0.014,inactive: -0.053,inactive: 0.053,inactive: 0.023,inactive: -0.05,inactive: 0.009,inactive: 0.084,inactive: -0.02,inactive: -0.042,inactive: -0.033,inactive: 0.084,inactive: -0.039,inactive: -0.013,inactive: -0.02,inactive: -0.017,inactive: -0.032,inactive: -0.006,inactive: 0.005,active: -0.247
DPP8 (UniProt Q6V1X1),inactive: -0.189,inactive: -0.064,inactive: 0.07,inactive: -0.167,inactive: 0.03,inactive: 0.048,inactive: -0.044,inactive: -0.006,inactive: -0.041,inactive: 0.091,inactive: -0.066,inactive: -0.044,inactive: -0.025,inactive: 0.024,inactive: -0.022,inactive: 0.01,inactive: -0.03,inactive: -0.015,inactive: 0.051,inactive: -0.058
EDC3 (UniProt Q96F86),inactive: -0.011,inactive: 0.019,inactive: -0.01,inactive: 0.066,inactive: -0.016,inactive: -0.012,inactive: -0.017,inactive: -0.043,inactive: 0.006,inactive: 0.018,inactive: -0.045,inactive: -0.1,inactive: 0.003,inactive: 0.009,inactive: 0.038,inactive: 0.019,inactive: -0.071,inactive: 0.025,inactive: -0.02,inactive: -0.042
EIF1AX (UniProt P47813),inactive: -0.002,inactive: 0.118,inactive: -0.053,inactive: 0.013,inactive: 0.017,inactive: -0.033,inactive: 0.09,inactive: 0.02,inactive: -0.023,inactive: -0.061,inactive: 0.007,inactive: 0.034,inactive: 0.03,inactive: -0.024,inactive: -0.03,inactive: -0.018,inactive: -0.031,inactive: 0.016,inactive: -0.026,inactive: -0.079
DYNLL2 (UniProt Q96FJ2),inactive: 0.028,inactive: -0.075,inactive: 0.122,inactive: 0.031,inactive: 0.034,inactive: 0.015,inactive: -0.068,inactive: 0.004,inactive: -0.093,inactive: -0.103,inactive: 0.005,inactive: 0.118,inactive: 0.001,inactive: -0.022,inactive: 0.054,inactive: -0.002,inactive: -0.127,inactive: 0.02,inactive: 0.003,inactive: -0.106
DPP7 (UniProt Q9UHL4),inactive: 0.078,inactive: -0.015,inactive: 0.035,inactive: 0.044,inactive: 0.036,inactive: -0.028,inactive: -0.003,inactive: 0.055,inactive: -0.004,inactive: 0.018,inactive: -0.014,inactive: 0.011,inactive: -0.032,inactive: 0.028,inactive: 0.019,inactive: 0.008,inactive: -0.025,inactive: -0.018,inactive: 0.026,inactive: 0.009
DYNLRB1 (UniProt Q9NP97),inactive: 0,inactive: -0.03,inactive: 0.082,inactive: 0.055,inactive: 0.016,inactive: -0.015,inactive: -0.075,inactive: -0.071,inactive: 0.017,inactive: -0.004,inactive: 0.097,inactive: 0.122,inactive: 0.017,inactive: 0.129,inactive: 0.075,inactive: 0.005,inactive: 0.039,inactive: 0.007,inactive: -0.032,inactive: -0.142
DTYMK (UniProt P23919),inactive: -0.008,inactive: 0.042,inactive: 0.022,inactive: -0.062,inactive: 0.006,inactive: 0.059,inactive: 0.011,inactive: -0.032,inactive: 0.011,inactive: -0.033,inactive: 0.037,inactive: -0.095,inactive: 0.01,inactive: -0.006,inactive: 0.04,inactive: -0.061,active: 0.283,inactive: 0.009,inactive: -0.007,inactive: -0.011

# Looked up above.
# Under log2 fold change [4], DUS2 (UniProt Q9NX74) is entered as inactive: -0.095
# Under log2 fold change (encorafenib), DPP7 (UniProt Q9UHL4) is entered as inactive: 0.008
